Results deposited as PubChem BioAssay AID493246 (Drosophila RNAi Screening Center, 2011).
The screen tested about 21,000 reagents; this is an unselected part of those that have a named target and a result. Over the whole deposit, 429 (2%) were called active. 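Values are raw and not normalised between plates; calls rest on per-plate z-scores that were not deposited.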 A plus sign joins genes that one reagent is predicted to hit. The record does not give: the amount of reagent, the time to read-out.

Aim: 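Genome-wide search for dsRNAs that reduce cell number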 (primary screen)
Cells: Drosophila Kc and S2R+ cells
Reagent: long dsRNA against Drosophila genes
Read-out: 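Cell number per well after knock-down, printed as raw plate values; calls were based on per-plate z-scores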
Direction: Kc cell number and S2R+ cell number: higher = more cells remaining
Active means: 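Active when the per-plate z-score of cell number is 3 or more in the direction of fewer cells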

| predicted target | amplicon | Kc cell number, rep 1 | Kc cell number, rep 2 | S2R+ cell number, rep 1 | S2R+ cell number, rep 2 | Outcome |
| --- | --- | --- | --- | --- | --- | --- |
| ac | DRSC18734 | 1.27e6 | 1.44e6 | 7.25e5 | 8.70e5 | inactive |
| CG32444 | DRSC11677 | 1.63e6 | 1.66e6 | 1.15e6 | 1.23e6 | inactive |
| aub | DRSC03486 | 1.46e6 | 1.49e6 | 1.36e6 | 1.28e6 | inactive |
| scat | DRSC02722 | 1.29e6 | 1.38e6 | 1.23e6 | 1.18e6 | inactive |
| Acp95EF | DRSC14102 | 1.80e6 | 1.70e6 | 1.03e6 | 1.17e6 | inactive |
| CG7423 | DRSC20044 | 1.50e6 | 1.50e6 | 1.05e6 | 1.21e6 | inactive |
| Edem2 | DRSC02877 | 1.88e6 | 1.92e6 | 1.35e6 | 1.48e6 | inactive |
| CG9396 | DRSC16487 | 1.39e6 | 1.38e6 | 1.24e6 | 1.31e6 | inactive |
| Grip75 | DRSC03337 | 1.71e6 | 1.68e6 | 1.25e6 | 1.41e6 | inactive |
| CG14691 | DRSC14914 | 1.70e6 | 1.91e6 | 1.41e6 | 1.53e6 | inactive |
| CG13581 | DRSC04216 | 1.54e6 | 1.58e6 | 1.23e6 | 1.44e6 | inactive |
| Abp1 | DRSC09693 | 1.33e6 | 1.51e6 | 1.28e6 | 1.35e6 | inactive |
| CG13312 | DRSC09983 | 1.27e6 | 1.46e6 | 1.14e6 | 1.19e6 | inactive |
| fra | DRSC07621 | 1.47e6 | 1.57e6 | 1.29e6 | 1.38e6 | inactive |
| ari-1 | DRSC20308 | 1.59e6 | 1.58e6 | 1.09e6 | 1.18e6 | inactive |
| Pdcd4 | DRSC19360 | 1.62e6 | 1.60e6 | 1.02e6 | 1.12e6 | inactive |
| bab2 | DRSC08150 | 1.47e6 | 1.28e6 | 9.55e5 | 1.24e6 | inactive |
| bab2 | DRSC08380 | 1.35e6 | 1.16e6 | 7.42e5 | 9.11e5 | inactive |
| Vps50 | DRSC06910 | 1.37e6 | 1.46e6 | 1.25e6 | 1.18e6 | inactive |
| CG16721 | DRSC18113 | 5.51e5 | – | 8.99e5 | – | inactive |
| MCPH1 | DRSC06309 | 1.35e6 | 1.52e6 | 8.18e5 | 1.10e6 | inactive |
| MCPH1 | DRSC07308 | 1.74e6 | 1.71e6 | 1.31e6 | 1.46e6 | inactive |
| CG13693 | DRSC00362 | 1.86e6 | 1.88e6 | 1.14e6 | 1.22e6 | inactive |
| CG6015 | DRSC15948 | 1.33e6 | 1.51e6 | 7.37e5 | 8.30e5 | inactive |
| CG12439 | DRSC02168 | 1.50e6 | 1.60e6 | 1.24e6 | 1.33e6 | inactive |
| Or88a | DRSC16770 | 1.25e6 | 1.28e6 | 1.14e6 | 1.25e6 | inactive |
| CG11200 | DRSC06060 | 1.30e6 | 1.32e6 | 1.17e6 | 1.19e6 | inactive |
| CG1902 | DRSC06798 | 1.46e6 | 1.49e6 | 1.09e6 | 1.15e6 | inactive |
| Pburs | DRSC02483 | 1.64e6 | 1.64e6 | 1.35e6 | 1.47e6 | inactive |
| CG2577 | DRSC19863 | 1.61e6 | 1.54e6 | 9.78e5 | 1.12e6 | inactive |
| CG10339 | DRSC04065 | 1.51e6 | 1.55e6 | 1.21e6 | 1.30e6 | inactive |
| Nubp2 | DRSC11758 | 1.58e6 | 1.70e6 | 1.47e6 | 1.57e6 | inactive |
| Myo31DF | DRSC03376 | 1.20e6 | 9.56e5 | 6.69e5 | 6.22e5 | inactive |
| Vha13 | DRSC16895 | 1.25e6 | 1.21e6 | 9.28e5 | 9.89e5 | inactive |

8 entries already listed, arranged by “Kc cell number, rep 2”, high to low.
| predicted target | amplicon | Kc cell number, rep 1 | Kc cell number, rep 2 | S2R+ cell number, rep 1 | S2R+ cell number, rep 2 | Outcome |
| --- | --- | --- | --- | --- | --- | --- |
| Edem2 | DRSC02877 | 1.88e6 | 1.92e6 | 1.35e6 | 1.48e6 | inactive |
| Acp95EF | DRSC14102 | 1.80e6 | 1.70e6 | 1.03e6 | 1.17e6 | inactive |
| Grip75 | DRSC03337 | 1.71e6 | 1.68e6 | 1.25e6 | 1.41e6 | inactive |
| CG32444 | DRSC11677 | 1.63e6 | 1.66e6 | 1.15e6 | 1.23e6 | inactive |
| CG7423 | DRSC20044 | 1.50e6 | 1.50e6 | 1.05e6 | 1.21e6 | inactive |
| aub | DRSC03486 | 1.46e6 | 1.49e6 | 1.36e6 | 1.28e6 | inactive |
| scat | DRSC02722 | 1.29e6 | 1.38e6 | 1.23e6 | 1.18e6 | inactive |
| CG9396 | DRSC16487 | 1.39e6 | 1.38e6 | 1.24e6 | 1.31e6 | inactive |

The results go on:
| predicted target | amplicon | Kc cell number, rep 1 | Kc cell number, rep 2 | S2R+ cell number, rep 1 | S2R+ cell number, rep 2 | Outcome |
| --- | --- | --- | --- | --- | --- | --- |
| stwl | DRSC11400 | 1.18e6 | 1.34e6 | 1.01e6 | 1.07e6 | inactive |
| CG31688 | DRSC02682 | 1.46e6 | 1.59e6 | 1.22e6 | 3.33e5 | inactive |
| CG10337 | DRSC02038 | 1.87e6 | 1.93e6 | 1.28e6 | 2.64e5 | inactive |
| ppk11 | DRSC02737 | 1.53e6 | 1.59e6 | 1.34e6 | 1.49e6 | inactive |
| P32 | DRSC06988 | 1.32e6 | 1.39e6 | 1.08e6 | 1.18e6 | inactive |
| CG6766 | DRSC02991 | 1.50e6 | 1.55e6 | 1.02e6 | 1.14e6 | inactive |
| stl | DRSC04396 | 1.31e6 | 1.34e6 | 1.08e6 | 1.19e6 | inactive |
| wol | DRSC03077 | 1.42e6 | 1.44e6 | 5.46e5 | 9.84e5 | inactive |
| CG10550 | DRSC14251 | 4.90e5 | – | 8.50e5 | – | inactive |
| CG32628 (retired record) | DRSC19405 | 1.78e6 | 1.56e6 | 1.11e6 | 1.27e6 | inactive |
| Usp2 | DRSC20590 | 1.38e6 | 1.54e6 | 1.06e6 | 1.10e6 | inactive |
| Usp2 | DRSC20632 | 1.43e6 | 1.52e6 | 1.05e6 | 1.21e6 | inactive |
| Usp2 | DRSC20633 | 1.54e6 | 1.56e6 | 1.05e6 | 1.13e6 | inactive |
| CG10681 | DRSC09777 | 1.47e6 | 1.51e6 | 1.33e6 | 1.31e6 | inactive |
| CR10032 | DRSC12499 | 1.63e6 | 1.76e6 | 1.31e6 | 1.44e6 | inactive |
| CG1463 | DRSC19603 | 5.40e5 | – | 8.86e5 | – | inactive |
| Orct2 | DRSC14613 | 1.47e6 | 1.54e6 | 1.14e6 | 1.17e6 | inactive |
| S-Lap1 | DRSC10627 | 1.45e6 | 1.47e6 | 1.23e6 | 1.17e6 | inactive |
| M6 | DRSC11869 | 1.41e6 | 1.67e6 | 1.26e6 | 1.31e6 | inactive |
| ssp | DRSC10252 | 1.32e6 | 1.36e6 | 1.05e6 | 1.05e6 | inactive |
| NimC1 | DRSC01879 | 1.56e6 | 1.61e6 | 1.25e6 | 1.38e6 | inactive |
| CG12111 | DRSC17808 | 1.61e6 | 1.65e6 | 1.06e6 | 1.26e6 | inactive |
| CG17140 + CG17139 | DRSC02585 | 1.58e6 | 1.68e6 | 1.34e6 | 1.47e6 | inactive |
| CG17140 + CG17139 | DRSC02586 | 1.53e6 | 1.64e6 | 1.32e6 | 1.39e6 | inactive |
| Tig | DRSC03456 | 1.37e6 | 1.23e6 | 9.17e5 | 1.04e6 | inactive |
